The text below walks through data of PubChem BioAssay AID2685 (National Center for Advancing Translational Sciences (NCATS), 2010).

Some of the results follow. These are further read-outs of the screen, such as a control signal, another cell line or another target. No call is given for them. Most of these compounds were active or inconclusive in the main read-out, so they are no random draw. The note in brackets gives the kind of curve behind each potency; many fits are weak.

A short description of this experiment: qHTS Assay for Lipid Storage Modulators in Drosophila S3 Cells.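 As to cell number change: cells counted by Cell Tracker Red CMTPX staining in the red channel.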 Conditions: BODIPY lipid droplet fluorescence, 18-24 h; for cell number change: measured here: cell count max response, cells fed with added oleic acid. A digest of the protocol: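 Drosophila S3 cells got compounds at several concentrations plus oleic acid (400 uM solution). Laser-scanning cytometry with 488 nm excitation read lipid droplets at 500-530 nm and cells at 575-640 nm. Percent activity was relative to 20 uM Triacsin C.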
In general terms: In qHTS, concentration-response curves come from the screen itself.

Setting [1] is: measured here: lipid fluorescence (Fed channel) AC50, cells fed with added oleic acid.
[2] abbreviates: measured here: cell number channel AC50, cells fed with added oleic acid.

One may read the AC50 as the concentration at which the activity in the assay is half-maximal. Lower therefore signals activity at low concentration. For the molecule `CCCn1nnnc1NCc1ccc(OC)cc1OC`, the cell number change worked out at 7.95%. The AC50 under setting [1] was 0.164 µM [rising, full curve, poor fit].
Take `Cc1ccc(Nc2nnc(SCC(=O)NC3CCCc4ccccc43)s2)cc1` (stereo not given): the cell number change was -39.3%. Moreover, the AC50 under setting [2] was 20.6 µM [falling, single point]. Under setting [1], the AC50 is 14.6 µM [falling, partial curve].
Take `COc1cc(OC)cc(C(=O)NN2CCOCC2)c1`: the cell number change came out at 21.6%. Moreover, the AC50 under setting [1] is 0.116 µM [falling, full curve, poor fit].
Take `CC1Sc2ccc(C(=O)Nc3ccccc3OC(F)F)cc2NC1=O` (stereo not given): under setting [1], the AC50 was 2.06 µM [rising, partial curve, poor fit].
As to `Cc1nn(-c2ccccc2)c(Cl)c1/C=N\NC(=O)c1cnccn1`, the cell number change turned out to be 3.07%. Besides, the half-maximal activity concentration (AC50) under setting [1] is 20.6 µM [rising, single point].
In the case of `Cc1cc(C(=O)Nc2ccc(Cl)cc2)on1`, the cell number change was -16.7%.
Take `COC(=O)C1=C(C(=O)c2ccccc2)C(c2cccs2)n2nnnc2N1` (stereo not given): the cell number change was determined as 4.33%. The AC50 under setting [2] was 0.00517 µM [rising, full curve, poor fit].
Consider `CC1(C)Cc2c(c(N3CCOCC3)nc3sc(-c4ccc(C(=O)O)o4)c(N)c23)CO1`, for which the cell number change came to 15.1%.
With `Cc1cnc(C(=O)Nc2ccc(C)c(S(=O)(=O)N3CCCCC3)c2)cn1`, the cell number change was 24.8%. For the same molecule, the AC50 under setting [1] is 1.64 µM [rising, partial curve].
On to `C[C@H](NC(=O)[C@H]1N2C(=O)c3ccccc3C2SC1(C)C)C(=O)N1CCN(C)CC1` (stereo not given in full), for which the cell number change is -0.763%. Also, under setting [1], the AC50 is 2.59 µM [falling, single point].
As to `CCC1(c2ccccc2)NC(=O)N(CC(=O)NNC(=O)COc2ccc(Cl)cc2C)C1=O` (stereo not given), the cell number change is -6.83%. Under setting [1], the AC50 is 0.82 µM [rising, full curve, poor fit].
On to `O=S(=O)(/N=C(/Nc1cc(N2CCOCC2)ncn1)c1ccccc1)c1ccccc1`, for which the AC50 under setting [2] was 2.59 µM [rising, partial curve, poor fit].
For `Cc1ccc(NC(=O)COC(=O)c2cccc3c(=O)c(C)c(-c4ccccc4)oc23)cc1`, the cell number change was -42.6%. Also, the AC50 under setting [2] was 18.4 µM [falling, single point]. The AC50 under setting [1] was 29.1 µM [falling, single point].
Turning to `CC(N1CCOC1=O)S(=O)(=O)c1ccccc1` (stereo not given), the cell number change was -12.5%. Besides, under setting [1], the AC50 is 2.06 µM [falling, partial curve].
Consider `Cc1onc(-c2c(Cl)cccc2Cl)c1C(=O)N1CCN(c2ccccc2F)CC1`, for which the cell number change stood at 20%. Also, the AC50 under setting [1] was 13 µM [rising, partial curve].
For the molecule `COc1ccc(-c2nc3ccccc3nc2-c2ccccc2)cc1OC`, the cell number change is -19.3%. Further, the AC50 under setting [1] was 29.1 µM [falling, single point].
Consider `O=C(Cc1ccccc1[N+](=O)[O-])NNC(=O)c1ccncc1`, for which the cell number change was -61.6%. Besides, the AC50 under setting [2] was 29.1 µM [falling, single point].
As for `CC(C)Sc1nc2ccccc2[nH]1`, the cell number change amounted to 12.8%.
`CCC(=O)Nc1nnc(S(=O)(=O)N2c3ccccc3CC2C)s1` (stereo not given): the cell number change was -0.599%. Under setting [1], the AC50 was 16.4 µM [rising, partial curve].
As for `CCOC(=O)N1CCC(n2c(SCC(=O)Nc3ccccc3OC)nc3ccccc3c2=O)CC1`, the cell number change was -24%. Further, under setting [1], the AC50 was 0.731 µM [rising, single point].
For `COc1ccc(Cn2c(C3CC3)nc3ccc(NC(=O)c4cccnc4)cc3c2=O)cc1`, the cell number change came to 23.7%. Further, the AC50 under setting [1] was 6.31 µM [falling, partial curve, poor fit].
For `FC(F)(F)c1cccc(NC(=S)NNC(=S)Nc2ccc(Cl)cc2)c1`, the cell number change was -48%. Further, the AC50 under setting [2] was 29.1 µM [falling, single point].
Consider `COc1ccc(NC(=S)N(CCN(C)C)C(C)c2ccncc2)cc1Cl` (stereo not given), for which the cell number change came to 3.47%. The half-maximal activity concentration (AC50) under setting [1] was 2.31 µM [rising, full curve, poor fit].
Turning to `Cc1cc(C)cc(NC(=O)c2ccc(CNc3c(N4CCCC4)c(=O)c3=O)cc2)c1`, the cell number change is 19.4%. Moreover, the AC50 under setting [1] was 4.11 µM [rising, single point].
With `Cc1ccc(CNc2nc3ccccc3n3cnnc23)cc1`, the AC50 under setting [2] was 0.731 µM [rising, full curve, poor fit].
With `Cc1cc(C(=O)NNC(=O)Nc2ccc(Cl)cc2)no1`, the cell number change is -21.9%. For the same molecule, the AC50 under setting [1] was 3.66 µM [falling, full curve].
Regarding `CS(=O)(=O)c1ccc(C(=O)NCC2(N3CCCCC3)CCCCC2)cc1`, the cell number change was 7.07%. Moreover, under setting [1], the AC50 was 6.51 µM [falling, partial curve].
For the molecule `N#Cc1cc([N+](=O)[O-])ccc1NCCCn1ccnc1`, the cell number change is 31.9%.
`CN(C1CCCCC1)S(=O)(=O)c1ccc2c(c1)c(=O)c(C(=O)NCCCN1CCCC1)cn2C`: the cell number change is 31.5%. In addition, under setting [2], the AC50 is 0.058 µM [rising, full curve, poor fit].
Take `COc1cc(NC(=S)NCCCO)c(OC)cc1Cl`: the cell number change was -39.8%.
On the same count and under the same terms, then `CCc1c(C2(O)CCCCC2)[nH]c2c(C(=O)OC)cc(Cl)cc12`, with -16.5%.
With `Cc1ccc(-c2nn(CCC(=O)NN3CCOCC3)c(=O)c3ccccc23)cc1`, the cell number change is -48.5%. The concentration at half-maximal activity (AC50) under setting [2] was 4.11 µM [falling, single point]. Moreover, the AC50 under setting [1] was 4.61 µM [falling, single point].
As to `CCc1sc(C(=O)NC(C)C2CCCO2)cc1Br` (stereo not given), the cell number change is 1.42%. The AC50 under setting [1] was 0.708 µM [falling, single point].
Turning to `COc1ccc(S(=O)(=O)Nc2ccc(Cc3ccncc3)cc2)cc1OC`, the cell number change worked out at 11.8%. Also, under setting [1], the AC50 was 29.1 µM [falling, single point].
Regarding `Cc1nnc2ccc(N3CCN(C(=O)c4ccccc4)CC3)nn12`, the cell number change amounted to 19.9%. Further, under setting [1], the AC50 is 1.46 µM [rising, partial curve, poor fit].
For `N#C/C(=C(/O)c1ccc(Cl)cc1)c1nc2ccccc2[nH]1`, the cell number change was 31.2%. In addition, the half-maximal activity concentration (AC50) under setting [2] was 16.4 µM [rising, single point]. The AC50 under setting [1] was 6.51 µM [rising, single point].
Take `COCc1cc(C)nc(SCC(=O)Oc2ccccc2)c1C#N`: the cell number change was -64.3%.
In the case of `CCOc1ccccc1NC(=O)CNC(=O)CNC(=O)Cc1ccccc1`, the cell number change came to 28.2%. Moreover, the AC50 under setting [1] is 2.91 µM [rising, full curve, poor fit].
For the molecule `O=C(c1nc2ncccn2n1)N1CCc2ccccc2C1`, the cell number change stood at 11%. Further, the AC50 under setting [1] is 6.51 µM [rising, single point].
For the molecule `CCN=c1scc(-c2ccco2)n1/N=C/c1ccc(O)cc1`, the cell number change came to 4.84%. The AC50 under setting [2] is 6.51 µM [rising, single point]. Moreover, the AC50 under setting [1] is 13 µM [rising, partial curve].
